Assay results from US20240148882A1 (University of California, published 2024).
No constants are given. Whether binding was seen depends on the method and setting. Some binding calls cover weakened binding; strength is not graded here. Values belong to the binder of their own block, whether it stands above or below them.

Amino acid sequences for entries named in this document (tags omitted). A change or cut given only in a name is not applied to a line headed by its entry. Chains listed by the source or under a name are the forms on record and can include a tag or linker.
VEGF165 (P15692, form named): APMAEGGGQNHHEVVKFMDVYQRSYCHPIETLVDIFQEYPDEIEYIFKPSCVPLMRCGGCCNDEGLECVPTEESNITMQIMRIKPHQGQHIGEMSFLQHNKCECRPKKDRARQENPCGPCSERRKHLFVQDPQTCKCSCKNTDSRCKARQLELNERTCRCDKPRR

Target: VEGF165 (human) (UniProt P15692)
Experiment: ELISA with 500 pg human VEGF-A165, percent unbound VEGF, four-parameter logistic fit

binding: binds
B1: single-domain camelid (VHH) anti-VEGF antibody, unconjugated (VHH)
VHH: DVQLVESGGGLVQPGGSLRLSCAASGRTFSSYSMGWFRQAPGKEREFVVAISKGGYKYDAVSLEGRFTISRDNAKNTVYLQINSLRPEDTAVYYCASSRAYGSSRLRLADTYEYWGQGTLVTVSS

binding: binds
B2: conjugated multivalent VHH anti-VEGF antibody (28 VHH per 860 kDa hyaluronic acid) (other)
VHH: SNADVQLVESGGGLVQPGGSLRLSCAASGRTFSSYSMGWFRQAPGKEREFVVAISKGGYKYDAVSLEGRFTISRDNAKNTVYLQINSLRPEDTAVYYCASSRAYGSSRLRLADTYEYWGQGTLVTVSSSPSTPPTPSPSTPPGGCDDDDKHHHHHH
modifications: covalently conjugated to 860 kDa hyaluronic acid
